Library screen at single concentrations

Source: ChEMBL document CHEMBL3988442, “University of Dundee, Small-Polar-MMV Screening Library” (2021).

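Whole-cell growth test on Mycobacterium tuberculosis, read after 4 days in a medium based on cholesterol and the lipid DPPC; the read-out is not stated. Concentration: 500 µM. Direction is inferred from retests: higher values go with more growth inhibition. Size under these conditions: about 18,000 compounds, about 900 of them at 50% or above in at least one test.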

Each number is a percent effect as filed. The controls that fix the scale are not given in the record; negative values are as filed. The compounds are a random part of those screened.

For CCNC(=O)Cc1n[nH]c(=O)c2ccccc12 the result was -15.24%. With COc1ccc2oc(CNC(C)(CO)CO)cc2c1 the screen gave 11.69%. Result for CN(Cc1ccc(S(C)(=O)=O)cc1)Cc1nccn1C was 5.053%. O=C(NCc1ccncc1)C1COCCO1 (centres undefined) read -12.25%. For CN(C)S(=O)(=O)CCCN1CCCCC1c1nccs1 (centres undefined) the result was 11.74%. With CC(C)NC(=O)NCCN1CCNCC1 the screen gave 10.2%. With Cc1ncc(S(N)(=O)=O)cc1CN the screen gave -0.4204%.

CC(CO)NC(=O)NCc1ccccc1 (centres undefined) read -3.851%. For COc1ccccc1C(=O)N1CCN(C2CC2)C(=O)C1 the result was -0.02495%. NCCc1ccnc2ccccc12 gave -8.211%. With Cc1nc(C)c(C(=O)NC[C@@H]2C[C@H](F)CN2)s1 the screen gave 9.951%. For CC(c1cccc(O)c1)N(C)C(=O)c1ccncc1F (centres undefined) the result was 1.706%. With Nc1nnc(SCc2coc(-c3ccccc3)n2)[nH]1 the screen gave 49.37%. For O=C(NC1CC1)c1cccc2cn[nH]c12 the result was -0.8377%.

For CC(C)c1noc(CN2CCSCC2)n1 the result was 36.73%. Result for COc1cc(C(C)O)cc(OC)c1O (centres undefined) was -7.291%. With Cc1cc(CC(=O)NCCSc2nnc(C)s2)on1 the screen gave -7.301%. CC(C)(C)C(=O)NC1CCS(=O)(=O)c2ccccc21 (centres undefined) gave 10.77%. CCn1cnc2ccc(C(=O)NC3CC3)cc2c1=O gave -5.885%. CC(C)C(=O)N1CCC(C(=O)NCC2CC2)CC1 read 7.742%. O=C1CN(C(=O)CN2CCCC2c2ccsc2)CCN1 (centres undefined) gave 29.86%.

With O=C(c1cnc[nH]1)N1CCCN(C2CCCC2)CC1 the screen gave 11.12%. Result for Cc1ccc(C(=O)NCc2ccccc2CO)c(=O)[nH]1 was -4.094%. COc1ccc(Cl)c(CSCC(O)CO)c1 (centres undefined) read 20.87%. For CC(O)CNC1CCS(=O)(=O)CC1 (centres undefined) the result was -2.685%. CNC1CN(C(=O)OC(C)(C)C)C1 read -7.957%. Result for O=C(CNc1cccc(CO)c1)NCc1ccc(Cl)s1 was 48.08%. Result for CC(=O)NCCCNCc1ccc(Br)c2cccnc12 was 26.44%.

With Cn1cc(CN(CCC#N)CCN2CCOCC2)cn1 the screen gave 6.829%. Result for OC1(c2c(F)cccc2F)CCNCC1 was 9.139%. For Cn1ncnc1CCNc1cc(C2CC(N)C2)ncn1 (centres undefined) the result was -9.234%. With Cc1ccc(C(=O)N2C[C@H](C3CC3)[C@@H](N)C2)s1 the screen gave 7.192%. CNC(=O)CCNS(=O)(=O)c1cc(C)cc(Br)c1 gave -6.444%. CC(OCC(F)(F)F)C(=O)Nc1cnn(C)c1 (centres undefined) gave 10.49%. For CN(C)c1ncc(CN(CCO)Cc2nccs2)cn1 the result was 14.42%.

CS(=O)(=O)CCSc1nccn1Cc1ccccn1 read 4.541%. With CC(C)(O)c1nnc(N)o1 the screen gave 9.475%. For CN1CCC(N(C)C(=O)c2ccccc2F)CC1 the result was -7.228%. Result for N#Cc1ccc(NC(=O)N2CCCC(O)C2)cc1 (centres undefined) was 15.85%. With CC(C)OCCCNC(=O)c1ccc(S(N)(=O)=O)cc1 the screen gave 0.1337%. For Cc1ccc(OCC(N)=O)cc1C the result was 18.46%. CC(C)(C)Sc1cc(C(=O)NCC(O)C2CC2)ccn1 (centres undefined) read 25.48%.

CC(C)Cc1cc(C(=O)N2CC[C@H](CO)[C@H](O)C2)on1 gave 5.471%. Result for CN1N=C(C(=O)NCC2CCN(C3CC3)C2)CCC1=O (centres undefined) was 7.359%. Result for CC(CNC(=O)NCc1cc[nH]n1)N1CCCC1 (centres undefined) was -0.5512%. With O=C(CCNC(=O)c1ccoc1)Nc1ccc(Cl)cn1 the screen gave 10.12%. For O=C(Cn1cnc2sc3c(c2c1=O)CCC3)NC1CC1 the result was -11.25%.

For reference, 6 entries once more:

| SMILES | Percent Effect |
|---|---|
| `O=C(NCc1ccncc1)C1COCCO1` (centres undefined) | -12.25% |
| `CC(CO)NC(=O)NCc1ccccc1` (centres undefined) | -3.851% |
| `O=C(CNc1cccc(CO)c1)NCc1ccc(Cl)s1` | 48.08% |
| `N#Cc1ccc(NC(=O)N2CCCC(O)C2)cc1` (centres undefined) | 15.85% |
| `CS(=O)(=O)CCSc1nccn1Cc1ccccn1` | 4.541% |
| `Cn1ncnc1CCNc1cc(C2CC(N)C2)ncn1` (centres undefined) | -9.234% |